± gives the standard deviation of the averaged measurements. The list shows a part of the results.

For this assay, the target named is T1, PC (UniProt P11498).
T1 sequence (whole entry): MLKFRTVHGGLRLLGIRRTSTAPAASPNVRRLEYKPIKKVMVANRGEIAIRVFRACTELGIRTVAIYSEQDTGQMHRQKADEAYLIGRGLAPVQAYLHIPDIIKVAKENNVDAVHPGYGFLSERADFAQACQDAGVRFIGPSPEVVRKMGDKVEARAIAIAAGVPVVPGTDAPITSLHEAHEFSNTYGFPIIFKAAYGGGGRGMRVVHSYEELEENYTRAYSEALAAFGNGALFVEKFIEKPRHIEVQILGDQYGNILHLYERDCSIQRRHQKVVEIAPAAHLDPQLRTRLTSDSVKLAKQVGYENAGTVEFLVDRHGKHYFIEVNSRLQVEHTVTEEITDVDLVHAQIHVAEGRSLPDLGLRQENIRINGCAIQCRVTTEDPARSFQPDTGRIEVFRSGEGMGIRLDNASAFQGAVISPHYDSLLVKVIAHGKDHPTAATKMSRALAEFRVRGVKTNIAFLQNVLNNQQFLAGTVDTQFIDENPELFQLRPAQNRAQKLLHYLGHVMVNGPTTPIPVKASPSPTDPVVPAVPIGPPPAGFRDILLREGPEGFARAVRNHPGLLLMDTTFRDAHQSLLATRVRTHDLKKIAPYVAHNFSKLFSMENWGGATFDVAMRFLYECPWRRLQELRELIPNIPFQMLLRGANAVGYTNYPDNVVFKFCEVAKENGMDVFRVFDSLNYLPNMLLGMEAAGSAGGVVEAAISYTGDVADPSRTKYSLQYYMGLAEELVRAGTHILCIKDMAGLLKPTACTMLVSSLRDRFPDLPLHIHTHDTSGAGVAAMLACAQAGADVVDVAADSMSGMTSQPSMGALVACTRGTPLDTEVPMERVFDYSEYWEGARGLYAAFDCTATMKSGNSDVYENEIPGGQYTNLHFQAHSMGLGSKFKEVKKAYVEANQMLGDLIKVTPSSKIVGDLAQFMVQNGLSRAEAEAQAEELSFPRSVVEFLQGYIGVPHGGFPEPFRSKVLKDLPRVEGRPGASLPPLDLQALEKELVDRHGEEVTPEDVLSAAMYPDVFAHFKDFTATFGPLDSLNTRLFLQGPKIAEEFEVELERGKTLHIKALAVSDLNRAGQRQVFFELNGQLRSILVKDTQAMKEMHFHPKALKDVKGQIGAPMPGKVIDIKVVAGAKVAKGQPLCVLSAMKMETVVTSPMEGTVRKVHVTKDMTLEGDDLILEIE
Kind of assay: NP40-soluble protein abundance relative to vehicle (solubility fold change) (ratio); higher = more soluble protein in presence of GTP. The procedure:
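Solubility proteome profiling in Jurkat crude lysate. Lysate was treated with Mg-GTP (0.1-10 mM) for 10 min at room temperature and 3 min at 37 °C, then solubilised with 0.8% NP40 and benzonase, followed by ultracentrifugation. Proteins were quantified by TMT10 LC-MS/MS; the value is the NP40-soluble abundance relative to the NP40-processed vehicle, from 3 independent experiments.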

On to `Nc1nc2c(ncn2[C@@H]2O[C@H](COP(=O)(O)OP(=O)(O)OP(=O)(O)O)[C@@H](O)[C@H]2O)c(=O)[nH]1` [guanosine triphosphate], for which the NP40-soluble protein abundance turned out to be 1.06 ± 0.055 (concentration: 0.1mM); 1.05 ± 0.029 (concentration: 0.5mM); 0.9929 ± 0.0084 (concentration: 1mM); 1 ± 0.048 (concentration: 2mM); 1.01 ± 0.048 (concentration: 4mM); 0.992 ± 0.03 (concentration: 6mM). Moreover, the NP40-soluble protein abundance reads like this: (concentration: 8mM) 0.978 ± 0.019; (concentration: 10mM) 0.948 ± 0.05.
